Measured values published in patent US4471115A, “Water soluble derivatives of cephalex and process for their preparation” (Neopharmed S.p.A., priority 1980, dated 1984).
Where a name gives a salt, the structure may show the parent alone. Read-outs that look alike come from different tables or passages of the source.

What was measured:
[1] = clinical; conditions: human, in vivo, po
[2] = in vivo, po

Row | SMILES | dose excreted at 24 h [1] [%] | Peak time levels greater than those of substance B ([2]; human) | Blood concentration of substance A as multiple of substance B ([2]; human, 60 min) | Blood concentration of substance A as multiple of substance B ([2]; human, 180 min) | Blood concentration of substance A as multiple of substance B ([2]; human, 360 min) | Area under the curve (AUC) relative to that of substance B [2]
1 | CC1=C(C(=O)O)N2C(=O)[C@@H](NC(=O)[C@H](N)c3ccccc3)[C@H]2SC1 [substance B, cephalexin monohydrated, reference compound] | 90.5 | – | – | – | – | –
2 | CC1=C(C(=O)O)N2C(=O)[C@@H](NC(=O)[C@H](NCO)c3ccccc3)[C@H]2SC1 [Example 1, Lysine salt of 2-N-methylol-cephalexin] | – | 3.5 | 1.3 | 3.5 | 24.0 | about two
